In the supplement of paper PMC8728848:
Some of the results follow.

What was measured:
Test in all cases: glycan array binding signal (z-score within array); higher = stronger binding
Settings in all cases: glycan notation: IUPAC condensed, linker removed
Neu5Ac(a2-3)Gal(b1-4)Glc = molecular target: Neu5Ac(a2-3)Gal(b1-4)Glc
In short: (§1)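 The Consortium for Functional Glycomics database supplied 3228 glycan arrays, of which those lacking an available protein sequence were dropped. The binding signal, a within-array Z-score, was averaged across arrays of the same protein sequence and across linkers. Negative scores can be read as non-binding.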

[1] = molecular target: Neu5Ac(a2-3)Gal(b1-4)GlcNAc
In short: as §1

[2] = molecular target: Neu5Ac(a2-3)Gal(b1-4)GlcNAc(b1-2)Man
In short: as §1

[3] = molecular target: Neu5Ac(a2-3)Gal(b1-4)GlcNAc(b1-2)Man(a1-3)[GlcNAc(b1-4)][Neu5Ac(a2-3)Gal(b1-4)GlcNAc(b1-2)Man(a1-6)]Man(b1-4)GlcNAc(b1-4)GlcNAc
In short: as §1

[4] = molecular target: Neu5Ac(a2-3)Gal(b1-4)GlcNAc(b1-2)Man(a1-3)[Neu5Ac(a2-3)Gal(b1-4)GlcNAc(b1-2)Man(a1-6)]Man(b1-4)GlcNAc(b1-4)GlcNAc
In short: as §1

[5] = molecular target: Neu5Ac(a2-3)Gal(b1-4)GlcNAc(b1-2)Man(a1-3)[Neu5Ac(a2-3)Gal(b1-4)GlcNAc(b1-2)Man(a1-6)]Man(b1-4)GlcNAc(b1-4)[Fuc(a1-6)]GlcNAc
In short: as §1

[6] = molecular target: Neu5Ac(a2-3)Gal(b1-4)GlcNAc(b1-2)Man(a1-3)[Neu5Ac(a2-6)Gal(b1-4)GlcNAc(b1-2)Man(a1-6)]Man(b1-4)GlcNAc(b1-4)GlcNAc
In short: as §1

[7] = molecular target: Neu5Ac(a2-3)Gal(b1-4)GlcNAc(b1-2)[Neu5Ac(a2-3)Gal(b1-4)GlcNAc(b1-4)]Man(a1-3)[GlcNAc(b1-4)][Neu5Ac(a2-3)Gal(b1-4)GlcNAc(b1-2)[Neu5Ac(a2-3)Gal(b1-4)GlcNAc(b1-6)]Man(a1-6)]Man(b1-4)GlcNAc(b1-4)GlcNAc
In short: as §1

[8] = molecular target: Neu5Ac(a2-3)Gal(b1-4)GlcNAc(b1-2)[Neu5Ac(a2-3)Gal(b1-4)GlcNAc(b1-4)]Man(a1-3)[GlcNAc(b1-4)][Neu5Ac(a2-3)Gal(b1-4)GlcNAc(b1-4)Man(a1-6)]Man(b1-4)GlcNAc(b1-4)GlcNAc
In short: as §1

[9] = molecular target: Neu5Ac(a2-3)Gal(b1-4)GlcNAc(b1-2)[Neu5Ac(a2-3)Gal(b1-4)GlcNAc(b1-6)]Man(a1-6)[Neu5Ac(a2-3)Gal(b1-4)GlcNAc(b1-2)Man(a1-3)]Man(b1-4)GlcNAc(b1-4)GlcNAc
In short: as §1

[10] = molecular target: Neu5Ac(a2-3)Gal(b1-4)GlcNAc(b1-2)[Neu5Ac(a2-3)Gal(b1-4)GlcNAc(b1-6)]Man(a1-6)[Neu5Ac(a2-3)Gal(b1-4)GlcNAc(b1-2)Man(a1-3)][GlcNAc(b1-4)]Man(b1-4)GlcNAc(b1-4)GlcNAc
In short: as §1

[11] = molecular target: Neu5Ac(a2-3)Gal(b1-4)GlcNAc(b1-3)Gal
In short: as §1

[12] = molecular target: Neu5Ac(a2-3)Gal(b1-4)GlcNAc(b1-3)Gal(b1-3)GlcNAc
In short: as §1

[13] = molecular target: Neu5Ac(a2-3)Gal(b1-4)GlcNAc(b1-3)Gal(b1-4)GlcNAc
In short: as §1

[14] = molecular target: Neu5Ac(a2-3)Gal(b1-4)GlcNAc(b1-3)Gal(b1-4)GlcNAc(b1-2)Man(a1-3)[Neu5Ac(a2-3)Gal(b1-4)GlcNAc(b1-3)Gal(b1-4)GlcNAc(b1-2)Man(a1-6)]Man(b1-4)GlcNAc(b1-4)GlcNAc
In short: as §1

[15] = molecular target: Neu5Ac(a2-3)Gal(b1-4)GlcNAc(b1-3)Gal(b1-4)GlcNAc(b1-3)Gal(b1-4)GlcNAc
In short: as §1

[16] = molecular target: Neu5Ac(a2-3)Gal(b1-4)GlcNAc(b1-3)Gal(b1-4)GlcNAc(b1-3)Gal(b1-4)GlcNAc(b1-2)Man(a1-3)[Neu5Ac(a2-3)Gal(b1-4)GlcNAc(b1-3)Gal(b1-4)GlcNAc(b1-3)Gal(b1-4)GlcNAc(b1-2)Man(a1-6)]GalNAc
In short: as §1

[17] = molecular target: Neu5Ac(a2-3)Gal(b1-4)GlcNAc(b1-3)Gal(b1-4)GlcNAc(b1-3)GalNAc
In short: as §1

[18] = molecular target: Neu5Ac(a2-3)Gal(b1-4)GlcNAc(b1-3)Gal(b1-4)GlcNAc(b1-3)[Neu5Ac(a2-3)Gal(b1-4)GlcNAc(b1-3)Gal(b1-4)GlcNAc(b1-6)]GalNAc
In short: as §1

[19] = molecular target: Neu5Ac(a2-3)Gal(b1-4)GlcNAc(b1-3)Gal(b1-4)GlcNAc(b1-6)[Gal(b1-3)]GalNAc
In short: as §1

[20] = molecular target: Neu5Ac(a2-3)Gal(b1-4)GlcNAc(b1-3)Gal(b1-4)[Fuc(a1-3)]GlcNAc
In short: as §1

[21] = molecular target: Neu5Ac(a2-3)Gal(b1-4)GlcNAc(b1-3)GalNAc
In short: as §1

[22] = molecular target: Neu5Ac(a2-3)Gal(b1-4)GlcNAc(b1-3)[Neu5Ac(a2-3)Gal(b1-4)GlcNAc(b1-6)]GalNAc
In short: as §1

[23] = molecular target: Neu5Ac(a2-3)Gal(b1-4)GlcNAc(b1-6)GalNAc
In short: as §1

[24] = molecular target: Neu5Ac(a2-3)Gal(b1-4)GlcNAc(b1-6)[Gal(b1-3)]GalNAc
In short: as §1

[25] = molecular target: Neu5Ac(a2-3)Gal(b1-4)GlcNAc(b1-6)[Neu5Ac(a2-3)Gal(b1-3)]GalNAc
In short: as §1

[26] = molecular target: Neu5Ac(a2-3)Gal(b1-4)GlcNAc6S
In short: as §1

[27] = molecular target: Neu5Ac(a2-3)Gal(b1-4)[Fuc(a1-3)]GlcNAc
In short: as §1

[28] = molecular target: Neu5Ac(a2-3)Gal(b1-4)[Fuc(a1-3)]GlcNAc(b1-2)Man
In short: as §1

[29] = molecular target: Neu5Ac(a2-3)Gal(b1-4)[Fuc(a1-3)]GlcNAc(b1-3)Gal
In short: as §1

[30] = molecular target: Neu5Ac(a2-3)Gal(b1-4)[Fuc(a1-3)]GlcNAc(b1-3)Gal(b1-4)GlcNAc
In short: as §1

[31] = molecular target: Neu5Ac(a2-3)Gal(b1-4)[Fuc(a1-3)]GlcNAc(b1-3)Gal(b1-4)[Fuc(a1-3)]GlcNAc(b1-3)Gal(b1-4)[Fuc(a1-3)]GlcNAc
In short: as §1

[32] = molecular target: Neu5Ac(a2-3)Gal(b1-4)[Fuc(a1-3)]GlcNAc(b1-3)GalNAc
In short: as §1

[33] = molecular target: Neu5Ac(a2-3)Gal(b1-4)[Fuc(a1-3)]GlcNAc(b1-6)[Gal(b1-3)]GalNAc
In short: as §1

[34] = molecular target: Neu5Ac(a2-3)Gal(b1-4)[Fuc(a1-3)]GlcNAc(b1-6)[Neu5Ac(a2-3)Gal(b1-3)]GalNAc
In short: as §1

[35] = molecular target: Neu5Ac(a2-3)Gal(b1-4)[Fuc(a1-3)]GlcNAc6S
In short: as §1

[36] = molecular target: Neu5Ac(a2-3)Gal6S(b1-4)GlcNAc
In short: as §1

[37] = molecular target: Neu5Ac(a2-3)Gal6S(b1-4)[Fuc(a1-3)]GlcNAc
In short: as §1

B1: Tp0751, 83732 (protein)
chain: MSYYHHHHHHLESTSLYKKAGFQHGHVPPRRIPPHDTFGALPTAALPSNARDTAAHPSDTADNTSGSSTTTDPRSHGNAPPAPVGGAAQTHTQPPVQTAMRIALWNRATHGEQGALQHLLAGLWIQTEISPNSGDIHPLLFFDREHAEITFSRASVQEIFLVDSAHTHRKTVSFLTRNTAISSIRRRLEVTFESHEVIHVRAVEDVARLKIGSTSMWDGQYTRYHAGPASAPSP
- glycan array binding signal (z-score) (Neu5Ac(a2-3)Gal(b1-4)Glc): -0.147
- glycan array binding signal (z-score) [1]: -0.059
- glycan array binding signal (z-score) [2]: 6.75
- glycan array binding signal (z-score) [3]: -0.35
- glycan array binding signal (z-score) [4]: -0.437
- glycan array binding signal (z-score) [5]: -0.523
- glycan array binding signal (z-score) [6]: -0.421
- glycan array binding signal (z-score) [7]: -0.427
- glycan array binding signal (z-score) [8]: -0.386
- glycan array binding signal (z-score) [9]: 0.009
- glycan array binding signal (z-score) [10]: -0.21
- glycan array binding signal (z-score) [11]: -0.332
- glycan array binding signal (z-score) [12]: -0.071
- glycan array binding signal (z-score) [13]: 0.172
- glycan array binding signal (z-score) [14]: 0.542
- glycan array binding signal (z-score) [15]: 0.133
- glycan array binding signal (z-score) [16]: 0.338
- glycan array binding signal (z-score) [17]: -0.746
- glycan array binding signal (z-score) [18]: -0.346
- glycan array binding signal (z-score) [19]: 0.008
- glycan array binding signal (z-score) [20]: -0.479
- glycan array binding signal (z-score) [21]: -0.179
- glycan array binding signal (z-score) [22]: -0.246
- glycan array binding signal (z-score) [23]: -0.33
- glycan array binding signal (z-score) [24]: -0.36
- glycan array binding signal (z-score) [25]: -0.244
- glycan array binding signal (z-score) [26]: -0.13
- glycan array binding signal (z-score) [27]: -0.213
- glycan array binding signal (z-score) [28]: -0.032
- glycan array binding signal (z-score) [29]: -0.282
- glycan array binding signal (z-score) [30]: 0.024
- glycan array binding signal (z-score) [31]: -0.664
- glycan array binding signal (z-score) [32]: 0.475
- glycan array binding signal (z-score) [33]: 0.078
- glycan array binding signal (z-score) [34]: -0.636
- glycan array binding signal (z-score) [35]: -0.169
- glycan array binding signal (z-score) [36]: -0.236
- glycan array binding signal (z-score) [37]: -0.248
